{"source": "patent EP1043318A1", "about": "(priority 1997, dated 1999)", "key": {"M. tuberculosis 61 (S)": {"tested_on": "M. tuberculosis 61 (S)", "experiment": "Activity on pathogenic mycobacteria, growth on Lewenstein-Jensen medium (sensitive strain)", "assay_type": "cell-based", "conditions": "strain sensitive to control preparations; concentration of the preparation 50.0 g/l (table title); incubated 30 days"}, "[1]": {"tested_on": "herpes simplex type 1 (VPG-1/Leningrad/248/88)", "experiment": "Antiviral activity on herpes virus, cytopathic effect in Vero cell culture", "assay_type": "cell-based, herpes simplex virus", "conditions": "2160 min"}}, "note": "For some assays here: At least one read-out could not be matched to a standard name with certainty. For some assays here: At least one structure is not confirmed: it was looked up by name or label, or the drawing left a doubt."}
{"compound": "CO[C@H]1/C=C/O[C@@]2(C)Oc3c(C)c(O)c4c(O)c(c(/C=N/N5CCN(C)CC5)c(O)c4c3C2=O)NC(=O)/C(C)=C\\C=C\\[C@H](C)[C@H](O)[C@@H](C)[C@@H](O)[C@@H](C)[C@H](OC(C)=O)[C@@H]1C", "note": "[Rifampicin]", "values": [{"measurement": "M. tuberculosis 61S growth", "setting": "M. tuberculosis 61 (S)", "result": "complete suppression of growth"}]}
{"compound": "2-hydroxyethylammonium salt of 5,5'-(p-nitrobenzylidene)bisbarbituric acid [III]", "values": [{"measurement": "percent protection of the cells against the virus compared to the control cell culture", "setting": "[1]; 10 mg/l", "result": 20, "unit": "%"}, {"measurement": "percent protection of the cells against the virus compared to the control cell culture", "setting": "[1]; 50 mg/l", "result": 30, "unit": "%"}, {"measurement": "percent protection of the cells against the virus compared to the control cell culture", "setting": "[1]; 100 mg/l", "result": 55, "unit": "%"}]}
{"compound": "pyridine salt of 5,5'-(p-bromobenzylidene)bisbarbituric acid [VIII]", "values": [{"measurement": "percent protection of the cells against the virus compared to the control cell culture", "setting": "[1]; 50 mg/l", "result": 25, "unit": "%"}, {"measurement": "percent protection of the cells against the virus compared to the control cell culture", "setting": "[1]; 100 mg/l", "result": 50, "unit": "%"}]}
{"compound": "pyridine salt of 5,5'-(p-chlorobenzylidene)bis(2-thiobarbituric) acid [IV]", "values": [{"measurement": "percent protection of the cells against the virus compared to the control cell culture", "setting": "[1]; 50 mg/l", "result": 20, "unit": "%"}, {"measurement": "percent protection of the cells against the virus compared to the control cell culture", "setting": "[1]; 100 mg/l", "result": 40, "unit": "%"}]}
